For one substance, binding results are on record in paper PMC3328432, “Molecular Requirements for Peroxisomal Targeting of Alanine-Glyoxylate Aminotransferase as an Essential Determinant in Primary Hyperoxaluria Type 1” (PLoS Biology, 2012).

Results are given in words; binding and its absence hold for the method and conditions named.

The experiment concerns the target C-terminal cargo-binding segment of human Pex5p (residues 315-639) (human) (UniProt P50542). Briefly: SEC-MALS; analytical gel filtration and static light scattering (MiniDAWN); complex formed by mixing purified Pex5p(C) and AGT; single components also run; both purified. Background: SEC sorts molecules by how far they enter the pores of the column.

For the substance “C-terminal cargo-binding segment of human Pex5p (residues 315-639) (from UniProt P50542 315-639) (domain or fragment)”, the binding result is “no binding”.
